Data taken from PubChem BioAssay AID504834 (National Center for Advancing Translational Sciences (NCATS), 2011).
In all, about 320,000 compounds went through this assay and about 22,000 (6.9%) were called active. Inconclusive results, whose numbers are uncertain, are shown with a selection of clear calls. The call rests on the fitted dose curve; in most records, active means well fitted inhibition curve with a large enough effect; inconclusive means small, poorly fitted or top-dose-only effect, or another doubt; inactive means no such curve, though single readings can be large or run the other way. A potency beside an inconclusive call is a rough fit, not a confirmed value.

experiment: Primary qHTS for delayed death inhibitors of the malarial parasite plastid, 96 hour incubation; details: P. falciparum luciferase reporter growth; series mostly up to 28.7 µM; activity change, negative = inhibition: at the top concentration
Procedure, shortened: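 Plates of compound plus infected erythrocytes (2% hematocrit, 0.05% parasitemia final) incubate 96 hours, 37 C, 5% CO2. Detection reagent added; reduced luminescence from the parasites' luciferase reporter flags inhibition.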
On the % scale 0 is the no-effect control and ±100 the full control effect; potency means the concentration at half of the fitted maximal effect.

Compound | activity change, negative = inhibition | Potency
O=C(CNC(=O)c1cccc(OC(F)F)c1)Nc1ccc(Cl)cc1 | inactive: 5.73% | –
COC(=O)/C(C#N)=C/c1c(N2CCCCCC2)nc2c(C)cccn2c1=O | – | inconclusive: 13.1 µM [inhibitor, partial curve]
CCOc1ccc(-c2nnc(N(CC)C(=O)C3CCC3)s2)cc1 | – | active: 6.57 µM
COc1ccccc1C(CCN(Cc1cccs1)C(C)=O)c1ccco1 (stereo not drawn) | – | active: 13.1 µM
Cc1cccc(NC(=O)N2CCN(Cc3ccc4c(c3)OCO4)CC2)c1C | – | inconclusive: 13.1 µM [inhibitor, single point]
COC(=O)C(NC(=O)c1ccc(Cl)cc1)(Nc1nc(C)cs1)C(F)(F)F (stereo not drawn) | – | inconclusive: 18.5 µM [inhibitor, single point]
CC(=O)Nc1ccc2c(c1)N(C(C)=O)c1ccccc1CC2 | – | inconclusive: 18.5 µM [inhibitor, single point]
O=C(NN1C(=O)C2C3C=CC(C3)C2C1=O)c1ccncc1 (stereo not drawn) | – | inconclusive: 4.15 µM [inhibitor, partial curve, poor fit]
O=C(NC1CCCN(c2ccc(C(F)(F)F)cn2)C1)c1ccncc1 (stereo not drawn) | – | inconclusive: 18.5 µM [inhibitor, single point]
CCCC(=O)NC1CCCc2c1cnn2-c1ccc(C)c(C)c1 (stereo not drawn) | – | active: 3.29 µM
CC(SC1CCCC1)C(=O)Nc1ccnn1C(C)C (stereo not drawn) | inactive: 25% | –
CC(NS(=O)(=O)c1cccc(C(=O)O)c1)C12CC3CC(CC(C3)C1)C2 (stereo not drawn) | – | inconclusive: 10.4 µM [inhibitor, single point]
COCCN(C(=O)c1sc2ccccc2c1Cl)c1c(N)n(CC(C)C)c(=O)[nH]c1=O | inactive: -18.2% | –
CCn1cc(-c2cc(C(=O)O)on2)c(C)n1 | – | inconclusive: 18.5 µM [inhibitor, single point]
CC(=O)c1ccc(N2CCN(C(=O)c3cccc(Oc4ccccc4)c3)CC2)cc1 | – | inconclusive: 0.657 µM [inhibitor, full curve, poor fit]
COc1cccc(CSc2nc3ccncc3[nH]2)c1 | inactive: -5.9% | –
Cc1ccc(CNC(=O)CCc2nnc3ccc(NCCCN4CCCC4=O)nn23)cc1 | – | inconclusive: 18.5 µM [inhibitor, single point]
COc1ccc(-c2cn(CCO)c(-c3ccc(Cl)nc3)n2)cc1 | – | inconclusive: 10.4 µM [inhibitor, partial curve, poor fit]
N#Cc1c(NC(=O)CSc2nnc(-c3ccncc3)n2CC2CCCO2)sc2c1CCCC2 (stereo not drawn) | – | inconclusive: 10.4 µM [inhibitor, single point]
O=C(NCc1ccc(F)cc1)C1CCN(S(=O)(=O)c2ccc(Br)s2)CC1 | – | inconclusive: 10.4 µM [inhibitor, single point]
C/C(Cn1nnc([N+](=O)[O-])n1)=N\NC(=O)c1ccncc1 | – | inconclusive: 18.5 µM [inhibitor, single point]
O=C(/C=N\O)NCCCNCc1ccccc1 | – | active: 5.86 µM
O=C(COC(=O)c1ccco1)Nc1ccc2c(c1)OCCO2 | inactive: -15.3% | –
O=C(COC(=O)C1(c2ccc(F)cc2)CCCC1)N1CCN(C(=O)c2ccco2)CC1 | – | inconclusive: 11.7 µM [inhibitor, single point]

Two compounds picked at random from those above, as already listed:
Compound | activity change, negative = inhibition | Potency
CCn1cc(-c2cc(C(=O)O)on2)c(C)n1 | – | inconclusive: 18.5 µM [inhibitor, single point]
O=C(NC1CCCN(c2ccc(C(F)(F)F)cn2)C1)c1ccncc1 (stereo not drawn) | – | inconclusive: 18.5 µM [inhibitor, single point]

Following part

Compound | activity change, negative = inhibition | Potency
O=C(Cc1ccc(F)cc1)Oc1ccc(C(=S)N2CCCC2)cc1 | inactive: -19.3% | –
Cc1ccc(NS(=O)(=O)c2ccc(-c3ccc(=O)[nH]n3)o2)c(C)c1 | – | inconclusive: 18.5 µM [inhibitor, single point]
Cc1cc(C)cc(N=Cc2c(O)c3ccccc3oc2=O)c1 | – | inconclusive: 18.5 µM [inhibitor, single point]
COc1cc(S(=O)(=O)N2CCCCC2)ccc1NC(=O)c1ccc(F)cc1 | – | active: 10.4 µM
COc1ccc(C2/C=C\CN(C(=O)CC(C)C)CC(=O)N2Cc2ccc(F)cc2)cc1 (stereo not drawn) | – | inconclusive: 10.4 µM [inhibitor, single point]
CCCC1Cc2c(sc3ncnc(N)c23)CO1 (stereo not drawn) | – | inconclusive: 5.22 µM [inhibitor, partial curve, poor fit]
O=C1CSC(c2ccccc2)N1Cc1ccccn1 (stereo not drawn) | inactive: 7.09% | –
Cc1nnc(N/N=C/C2CC=CCC2)[nH]c1=O (stereo not drawn) | – | inconclusive: 18.5 µM [inhibitor, single point]
Clc1ccc(-c2noc(CCCc3ccccc3)n2)cc1 | inactive: 7.96% | –
Cc1ccc(C(=O)N2CCN(c3cccc(C)c3C)CC2)cc1S(=O)(=O)N1CCOCC1 | – | inconclusive: 18.5 µM [inhibitor, single point]
Cc1ccc(NC(=O)/C(=C\c2cccs2)NC(=O)c2ccccc2)cc1 | – | active: 7.38 µM
CCOc1ccccc1NC(=O)Cn1c(-c2ccc(Cl)cc2)noc1=O | – | active: 4.15 µM
O=S(=O)(/N=C(/Nc1ccc(F)c(F)c1F)c1ccccc1)c1ccccc1 | inactive: 34.1% | –
C1=C(c2ccccc2)CCNC1 | inactive: 21.5% | –
COc1cc(C(=O)N2CCCN(C)CC2)cc(OC)c1C | inactive: 0% | –
CCCCn1c(C)cc2c(c1=O)[C@H]1O[C@](CCCC)(Cc3cc(OC)c(OC)cc31)O2 | – | inconclusive: 0.301 µM [inhibitor, full curve, poor fit]
C/C(=C\c1ccccc1)CN1CCC(C(=O)N2CCC(C)CC2)CC1 | – | inconclusive: 0.329 µM [inhibitor, full curve, poor fit]
CCN1C(=O)[C@H]2[C@@H](c3ccc(C)cc3)N3C(=O)N(c4ccc(C)cc4)C(=O)[C@@]3(Cc3ccc(Cl)cc3)[C@H]2C1=O | – | inconclusive: 9.28 µM [inhibitor, single point]
Fc1ccc(NC(=S)Nc2cccc3ccccc23)cc1 | inactive: -17.2% | –
O=C(NC12CC3CC(CC(C3)C1)C2)c1ccc([N+](=O)[O-])cc1 | inactive: 131% | –
C[C@@H]1CC[C@H]2[C@@H](C)C(=O)O[C@@H]3O[C@@]4(C)CC[C@@H]1[C@]32OO4 | – | active: 0.0033 µM
O=C(Nc1ccccc1C(=O)Nc1ccc(F)cc1)c1ccco1 | inactive: 10.2% | –
CN(C)S(=O)(=O)Oc1ccsc1C(=O)Nc1ccc(Br)cc1 | inactive: 6.17% | –
Cc1cc(=O)n2c(c1C#N)SC1CCCCC12O (stereo not drawn) | – | inconclusive: 2.33 µM [inhibitor, full curve]

Gathered by group: those above containing a COOH group
Compound | activity change, negative = inhibition | Potency
CC(NS(=O)(=O)c1cccc(C(=O)O)c1)C12CC3CC(CC(C3)C1)C2 (stereo not drawn) | – | inconclusive: 10.4 µM [inhibitor, single point]
CCn1cc(-c2cc(C(=O)O)on2)c(C)n1 | – | inconclusive: 18.5 µM [inhibitor, single point]
